B1: GFP-F2 (TTP 51-103 aa) (domain or fragment, UniProt P26651 51-103)
chain: TSRLPGRSTSLVEGRSCGWVPPPPGFAPLAPRLGPELSPSPTSPTATSTTPSR

By UniProt entry, the sequences of proteins in these tests, tags left out.
UniProt P14618: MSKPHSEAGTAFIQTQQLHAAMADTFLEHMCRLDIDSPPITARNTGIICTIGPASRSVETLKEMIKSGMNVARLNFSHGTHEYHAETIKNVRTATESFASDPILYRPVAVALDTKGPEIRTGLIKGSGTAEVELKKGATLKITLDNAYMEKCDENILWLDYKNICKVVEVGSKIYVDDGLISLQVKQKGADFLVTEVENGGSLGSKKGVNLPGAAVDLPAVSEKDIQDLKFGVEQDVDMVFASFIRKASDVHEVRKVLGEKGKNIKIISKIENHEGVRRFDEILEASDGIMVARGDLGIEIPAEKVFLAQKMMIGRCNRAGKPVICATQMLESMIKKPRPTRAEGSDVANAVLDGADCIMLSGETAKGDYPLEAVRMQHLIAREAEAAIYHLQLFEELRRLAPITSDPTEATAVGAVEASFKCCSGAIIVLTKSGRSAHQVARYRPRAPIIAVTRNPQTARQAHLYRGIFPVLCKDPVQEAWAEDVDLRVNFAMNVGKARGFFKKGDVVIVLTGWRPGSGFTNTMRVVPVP

Results are given in words; binding and its absence hold for the method and conditions named. In cells and extracts the contact can be indirect. Some binding calls cover weakened binding; strength is not graded here. Sequences can lack the tags named with a protein.

In this assay the target is Flag-tagged PKM2 (human) (UniProt P14618). Nature of the assay: co-IP; Flag-PKM2 co-expressed in HEK293T (legend: HEK293) cells with GFP-tagged TTP fragments; immunoprecipitation followed by immunoblotting. On the technique in general: In western blotting, separated proteins are transferred to a membrane and probed.
As for “GFP-F3 (TTP 104-173 aa) (from UniProt P26651 104-173) (domain or fragment)”, the binding entry is “binds”.

On to “GFP-tagged TTP C-terminal truncation ZnC (103-326 aa) (from UniProt P26651 103-326) (domain or fragment)”, for which the binding result was “binds weakly”.

For the molecule “GFP-tagged TTP N-terminal truncation ZnN (1-173 aa) (from UniProt P26651 1-173) (domain or fragment)”, the binding entry was “binds”.

For the molecule B1, the binding result is “binds”.

The values are drawn from publication PMC4772106.
